According to patent US10195212B2, “Glucocorticoid-loaded nanoparticles for prevention of corneal allograft rejection and neovascularization” (The Johns Hopkins University, priority 2014, dated 2019):
Counter-ions that a name gives are not always drawn.

Assay: In vivo ocular DSP levels after SC injection ([3H]-labeled DSP)
Design: species or system Sprague Dawley rat
Method: In order to detect the ocular DSP level after SC injection in rats, [3H]-labeled DSP spiked with DSP (10 μCi:1 mg DSP) during the preparation of F127-coated DSP-loaded PLGA nanoparticles (DSP-NP). Nanoparticles were suspended in saline at 20 μCi/mL. The free DSP solution at 20 μCi/mL was prepared at the same blending ratio. 40 μL (˜0.8 μCi per eye) of same formulation was injected to both eyes of the same animal (Sprague Dawley rat). At the indicated time intervals, 2 h, 1 day, 3 day, 5 day and 7 day after injection, the rats were anesthetized by intramuscular injection of ketamine/xylazine solution. The animal was sacrificed after collecting two drops of blood from the tail vein.
The eye ball with conjunctiva tissue was carefully removed from rats and rinsed with PBS, dried by Kimwipe tissue. The anterior chamber humor, cornea, vitreous, retina and the remaining eye ball tissue were carefully dissected and collected. Both cornea and retina tissues were rinsed with PBS and dried with Kimwipe tissue. All the samples were weighed, dissolved with 2 mL of Solvable by incubation at 50° C. overnight. Blood samples were bleached with 0.2 ml H2O2 and 20 μL, 0.5M EDTA. 10 ml […] scintillation medium was added before counting the radioactivity in a scintillation counter. The results were expressed as a percentage of the injected dose and are the mean±sd of four eyes (2 animals) per data point. […] Total percentage of injected dose at the periocular tissue and the radioactivity per mg (or mL) of tissue were calculated.
Example 1 describes the in vivo ocular DSP level within 1 week after SC injection. […] Ten milliliters of Ultima gold scintillation medium (Perkin Elmer, Waltham, Mass.) was added before counting the radioactivity in a scintillation counter (Perkin Elmer, Waltham, Mass.). The results were expressed as a percentage of the injected dose and are the mean±standard deviation (SD) of four eyes per data point. […] The total percentage of the injected dose at the injection sites and the radioactivity per mg of tissue or mL of blood were calculated.

SMILES: C[C@@H]1C[C@H]2[C@@H]3CCC4=CC(=O)C=C[C@]4(C)[C@@]3(F)[C@@H](O)C[C@]2(C)[C@@]1(O)C(=O)COP(=O)(O)O [DSP, Dexamethasone 21-phosphate sodium salt]
- blood DSP level relative to DSP-NP injection (PO 2 h, SC injection): more than 8 fold
- duration of effective DSP concentration in anterior chamber (SC administration): less than 6 hr
- time of peak concentration of DSP in aqueous and vitreous (rat eyes, SC injection): two hours after injection
